The source of these data is article PMC11679285.

These are yes or no findings as the source states them, for the method shown. Binding seen in cells or lysates may run through a third protein. A result given as binding can be weak or reduced; the word gives no strength.

The target of the test is tumor necrosis factor receptor 1 (TNFR1) (human (endogenous in MCF7)). The test is described as follows: co-IP; MCF7 lysate in NETN buffer, immunoprecipitation with a TNFR1 antibody, western blot; cells treated with or without 10 uM jacaranone for 3 h, then TNFα (20 ng/mL) for 0.5 h. For orientation: In western blotting, separated proteins are transferred to a membrane and probed.

B1: TNFR1-associated death domain protein (TRADD) (protein, UniProt Q15628 1-312)
chain: MAAGQNGHEEWVGSAYLFVESSLDKVVLSDAYAHPQQKVAVYRALQAALAESGGSPDVLQMLKIHRSDPQLIVQLRFCGRQPCGRFLRAYREGALRAALQRSLAAALAQHSVPLQLELRAGAERLDALLADEERCLSCILAQQPDRLRDEELAELEDALRNLKCGSGARGGDGEVASAPLQPPVPSLSEVKPPPPPPPAQTFLFQGQPVVNRPLSLKDQQTFARSVGLKWRKVGRSLQRGCRALRDPALDSLAYEYEREGLYEQAFQLLRRFVQAEGRRATLQRLVEALEENELTSLAEDLLGLTDPNGGLA
As for B1, the binding entry is “binds”.
